From PubChem BioAssay AID588497 (NMMLSC, 2011)
The whole screen tested about 360,000 compounds, of which about 780 (0.22%) were called active. Inconclusive means that the source gave no clear call. Such entries were picked first, then a sample of the others. Rule as the data show it: active = inhibition above about 35% (passing the limit was not always enough); inconclusive = no clear call, values can overlap the other calls.

System: Botulinum neurotoxin type F light chain protease (Clostridium botulinum)
Experiment: BoNT/F light chain protease inhibitors, primary screen, biochemical, flow cytometry, MLPCN library (AID 588497); also: plate controls were buffer without enzyme for full effect and enzyme alone for no effect
Conditions: Multiplex microsphere protease cleavage assay, at 10 µM, active compounds read high

| SMILES | inhibition |
| --- | --- |
| CC(=O)NC(Cc1c[nH]c2ccccc12)C(=O)NCCc1ccccc1 (configuration not stated) | inconclusive: -10.3% |
| O=[N+]([O-])c1ccc(O)c(/C=N/Nc2ccccn2)c1 | active: 67.4% |
| CCOC(=O)CCCCC(=O)c1[nH]c(=O)[nH]c1CSCCO | active: 64.5% |
| COc1ccc(NC(=O)c2cnn(-c3ccccc3)c2C)cc1OC | inconclusive: -3.8% |
| COc1ccc(N(CC(=O)Nc2ccc(F)c(Cl)c2)S(=O)(=O)c2c(C)noc2C)cc1 | inactive: 0.1% |
| COc1ccc(COCC(O)CN2CCCC(C(F)(F)F)C2)cc1 (configuration not stated) | inactive: 5.8% |
| COc1ccccc1C(=O)NCC(=O)NNC(=O)c1cccs1 | inactive: -2.6% |
| Cc1cc(C)c(NC(=O)CNC(=O)COC(=O)C2CCN(c3ccc(C(F)(F)F)cn3)CC2)c(C)c1 | inactive: -2.6% |
| O=C(O)CCn1c(-c2ccccn2)nc2ccccc21 | inconclusive: -15.3% |
| COCOc1ccc(-c2cc(=O)c3c(OCOC)cc(OCOC)cc3o2)cc1 | inactive: -0.4% |
| O=C(Nc1ccccc1)N1CCCN(Cc2c(F)cccc2Cl)CC1 | inconclusive: 20% |
| CC(=O)N1CCc2ccc(NC(=O)c3c(-c4c(Cl)cccc4Cl)noc3C)cc21 | inconclusive: -19.6% |
| N#Cc1c(N)n[nH]c1-c1cc2c([nH]1)CCCC2 | inconclusive: -19.3% |
| CC(O)(c1cccc(F)c1)c1nc(-c2ccc(S(C)(=O)=O)cc2)cs1 (configuration not stated) | inactive: -3.9% |
| COc1ccccc1NS(=O)(=O)c1cccc(C(=O)N/N=C/c2ccccc2OCC(=O)O)c1 | inactive: -0.3% |
| CC1(c2nnnn2-c2ccc3c(c2)OCCO3)CCC(=O)N1CCc1ccccc1F (configuration not stated) | inactive: -6.2% |
| O=C(NNc1cccc([N+](=O)[O-])c1)/C(=C\c1cccnc1)NC(=O)c1ccccc1 | inconclusive: 10.5% |
| Cc1ccc(-c2nc3cc(C)c(Br)c(C)n3c2Cc2ccsc2)cc1 | inactive: -3.8% |
| O=C(O)CN1C(=O)c2ccc(Oc3ccc([N+](=O)[O-])cc3)cc2C1=O | inconclusive: 18.3% |

| SMILES | inhibition |
| --- | --- |
| Nc1nc(Nc2ccccc2)nc(NCc2ccccc2)c1[N+](=O)[O-] | inconclusive: -14.9% |
| O=C(O)C(C(=O)O)=C1C2CC3CC(C2)CC1C3 | inconclusive: 9.9% |
| COc1ccccc1NC(=O)N(CCN1CCCC1)Cc1cc2cc(C)ccc2[nH]c1=O | inactive: -2.4% |
| CCCCn1c(SCC(=O)NCc2ccco2)nc2cc(S(N)(=O)=O)ccc21 | inconclusive: -53.2% |
| NS(=O)(=O)c1ccc(CCNC(=O)c2ccc[nH]c2=S)cc1 | inactive: -30.2% |
| Nc1c(Cl)c(Cl)nc(C(=O)N/N=C/c2ccco2)c1Cl | inconclusive: 22.4% |
| Cc1ccccc1S(=O)(=O)Oc1ccc2ccc(O)cc2c1 | inconclusive: 30% |
| Cc1ccc(S(=O)(=O)c2c(N)n(CCCN(C)C)c3nc4ccccc4nc23)cc1 | inconclusive: -6% |
| Cc1ccc(C)c(-c2ccc(=O)n(Cc3ccc(F)cc3Cl)n2)c1 | inactive: 5.7% |
| O=C(NC1CC2CCCC(C1)N2Cc1ccc(F)cc1)c1ccc(F)cc1 (configuration not stated) | inconclusive: -7.6% |
| COc1ccc(OC)c(NS(=O)(=O)c2ccc3c(c2)n(C)c(=O)n3C)c1 | inconclusive: -51.1% |
| COc1cccc(C(=O)NCC2(c3ccccc3)CCCC2)c1OC | inconclusive: -23.4% |
| COC(=O)C1=Cc2cc(OC)cc([N+](=O)[O-])c2OC1N1CCOCC1 (configuration not stated) | inconclusive: 43.3% |
| CC1CCN(S(=O)(=O)CCNC(=O)c2ccc(F)cc2)CC1 | inconclusive: 20.1% |
| CC(=O)c1nn(-c2cccc(C)c2)cc1C(=O)c1cccc(Br)c1 | inconclusive: 6% |
| COc1ccc2oc(=O)c(C(=O)Nc3cccc(C(C)=O)c3)cc2c1 | inconclusive: -19.9% |
| COc1cc(CNc2nnnn2C)cc(OC)c1OC | inconclusive: 14.7% |
| CCCN(CCC)C(=O)CC(c1ccccc1)c1ccco1 (configuration not stated) | inconclusive: -11.1% |
| Cc1onc(-c2ccccc2)c1CNC(=O)Nc1ccccc1 | inconclusive: -10.8% |

An excerpt from above in order of heavy-atom count, descending.

| SMILES | inhibition |
| --- | --- |
| O=C(NC1CC2CCCC(C1)N2Cc1ccc(F)cc1)c1ccc(F)cc1 (configuration not stated) | inconclusive: -7.6% |
| CCCN(CCC)C(=O)CC(c1ccccc1)c1ccco1 (configuration not stated) | inconclusive: -11.1% |
| O=C(O)C(C(=O)O)=C1C2CC3CC(C2)CC1C3 | inconclusive: 9.9% |

Next entries:

| SMILES | inhibition |
| --- | --- |
| O=C(Nc1ccc(O)cc1C(=O)O)c1ccc2c(c1)C(=O)N(Cc1ccco1)C2=O | active: 35.4% |
| O=[N+]([O-])c1cccc(OCC(O)CN2CCN(S(=O)(=O)c3cc(Cl)ccc3Cl)CC2)c1 (configuration not stated) | inactive: -15.3% |
| Cc1ccc(S(=O)(=O)C(C#N)c2nc3ccccc3nc2N2CCN(C)CC2)cc1C (configuration not stated) | inconclusive: -9.6% |
| CC(C)(C)NC(=O)/C(=C\c1ccco1)NC(=O)c1cccs1 | inactive: 6.3% |
| Cn1c(=O)c2c(ncn2CCC(=O)N/N=C/c2ccccc2)n(C)c1=O | inconclusive: -7.9% |
| O=C(c1ccc(Cl)cc1)C(CN1CCCC1)c1ccccc1 (configuration not stated) | inconclusive: -25.9% |
| CCOC(=O)C(=O)N1CCN(c2nc(-c3ccc(Cl)cc3)cs2)CC1 | inconclusive: -12.5% |
| O=C(NC(=S)Nc1ccccc1O)c1cncc(Br)c1 | inconclusive: -8% |
| CCOC(=O)C1CCCN(Cc2ccccc2C)C1 (configuration not stated) | inactive: -8.4% |
| CCOc1ccc2c(c1)C(C)=CC(C)(C)N2S(=O)(=O)c1ccc(NC(C)=O)cc1 | inconclusive: 0.5% |
| COc1cccc(C(C)(O)c2nc(-c3cccs3)cs2)c1 (configuration not stated) | inactive: 3.7% |
| CC(C)CNc1nc(Oc2ccc(=O)n(-c3ccccc3)n2)nc(N2CCOCC2)n1 | inconclusive: 23% |
| COc1ccc(OC)c(/C=N/NC(=O)c2ccc3nc[nH]c3c2)c1 | inconclusive: 166% |
| c1ccc(-c2nn3cnnc3c3ccccc23)cc1 | inactive: 3.9% |
| COc1ccc(-n2nc(C(=O)NCC(=O)Nc3cccc(Cl)c3)c3ccccc3c2=O)cc1OC | active: 51.2% |
| CC(=O)c1ccc(OC(=O)Cc2cccc3ccccc23)cc1 | inconclusive: -9.9% |
| CCC(C)(C)NC(=O)CN(C(=O)CCC(=O)Nc1nccs1)c1cccc(C)c1C | inconclusive: -5.4% |
| c1ccc(OCCCn2ccnc2)cc1 | inconclusive: -14.7% |
| CN(C)c1nc2c(c(=O)[nH]c(=O)n2C)n1CCOc1ccccc1 | inconclusive: -8% |
